Laboratory results as given in the supplement of paper PMC10849652.
Some of the results follow.

Protein sequences, listed by entry. Tags and fused reporters are not part of them. Lines headed by an entry give the natural chain unless they say otherwise; changes in a name come on top.
UniProt Q9NVR2, whole entry, looked up: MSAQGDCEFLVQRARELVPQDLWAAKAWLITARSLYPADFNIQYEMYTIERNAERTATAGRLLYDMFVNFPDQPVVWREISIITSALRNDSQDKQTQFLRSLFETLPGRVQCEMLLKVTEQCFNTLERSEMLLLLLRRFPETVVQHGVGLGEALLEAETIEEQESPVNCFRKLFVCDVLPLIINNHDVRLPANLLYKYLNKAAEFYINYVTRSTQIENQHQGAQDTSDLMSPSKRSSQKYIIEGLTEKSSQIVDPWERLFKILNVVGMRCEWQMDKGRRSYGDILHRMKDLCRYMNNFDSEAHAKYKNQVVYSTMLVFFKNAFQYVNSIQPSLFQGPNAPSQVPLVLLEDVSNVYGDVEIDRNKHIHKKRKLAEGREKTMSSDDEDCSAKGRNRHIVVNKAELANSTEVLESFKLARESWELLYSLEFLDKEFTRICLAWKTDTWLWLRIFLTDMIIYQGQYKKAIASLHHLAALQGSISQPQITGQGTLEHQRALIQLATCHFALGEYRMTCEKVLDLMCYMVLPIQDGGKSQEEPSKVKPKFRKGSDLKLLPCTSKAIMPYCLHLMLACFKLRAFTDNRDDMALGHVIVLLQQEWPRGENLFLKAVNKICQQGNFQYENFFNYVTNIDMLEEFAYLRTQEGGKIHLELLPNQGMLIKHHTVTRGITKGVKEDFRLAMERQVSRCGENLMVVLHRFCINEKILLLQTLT
UniProt O00458: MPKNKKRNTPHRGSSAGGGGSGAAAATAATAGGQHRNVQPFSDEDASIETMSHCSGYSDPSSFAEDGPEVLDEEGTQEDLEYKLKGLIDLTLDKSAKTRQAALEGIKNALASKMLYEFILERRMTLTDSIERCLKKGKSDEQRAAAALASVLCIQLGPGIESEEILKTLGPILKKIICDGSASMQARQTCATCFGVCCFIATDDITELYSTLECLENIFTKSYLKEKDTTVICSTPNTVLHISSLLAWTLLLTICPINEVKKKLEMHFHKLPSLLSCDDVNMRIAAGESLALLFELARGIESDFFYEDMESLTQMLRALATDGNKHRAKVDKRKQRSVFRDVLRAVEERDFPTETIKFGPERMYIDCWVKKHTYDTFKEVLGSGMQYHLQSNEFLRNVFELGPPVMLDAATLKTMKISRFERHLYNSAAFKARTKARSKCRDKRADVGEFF
UniProt Q96AB3: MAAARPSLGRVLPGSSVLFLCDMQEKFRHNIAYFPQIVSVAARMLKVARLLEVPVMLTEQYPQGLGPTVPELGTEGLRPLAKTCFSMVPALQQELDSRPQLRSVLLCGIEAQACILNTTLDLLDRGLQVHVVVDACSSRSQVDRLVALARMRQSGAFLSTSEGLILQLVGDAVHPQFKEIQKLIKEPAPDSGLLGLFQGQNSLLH
UniProt Q969R8: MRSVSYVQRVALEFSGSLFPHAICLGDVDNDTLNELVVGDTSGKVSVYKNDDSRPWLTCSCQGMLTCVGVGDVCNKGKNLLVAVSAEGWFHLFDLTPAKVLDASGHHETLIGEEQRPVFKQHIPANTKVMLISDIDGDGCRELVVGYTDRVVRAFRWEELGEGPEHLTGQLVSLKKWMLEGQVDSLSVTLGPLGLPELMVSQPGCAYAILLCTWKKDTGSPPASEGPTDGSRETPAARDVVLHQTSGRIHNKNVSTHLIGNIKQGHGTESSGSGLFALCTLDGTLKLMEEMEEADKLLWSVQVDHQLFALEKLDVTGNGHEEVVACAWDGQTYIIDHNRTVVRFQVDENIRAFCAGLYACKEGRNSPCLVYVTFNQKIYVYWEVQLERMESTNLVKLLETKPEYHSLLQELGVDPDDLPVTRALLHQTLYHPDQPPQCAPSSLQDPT
UniProt Q9Y6M1: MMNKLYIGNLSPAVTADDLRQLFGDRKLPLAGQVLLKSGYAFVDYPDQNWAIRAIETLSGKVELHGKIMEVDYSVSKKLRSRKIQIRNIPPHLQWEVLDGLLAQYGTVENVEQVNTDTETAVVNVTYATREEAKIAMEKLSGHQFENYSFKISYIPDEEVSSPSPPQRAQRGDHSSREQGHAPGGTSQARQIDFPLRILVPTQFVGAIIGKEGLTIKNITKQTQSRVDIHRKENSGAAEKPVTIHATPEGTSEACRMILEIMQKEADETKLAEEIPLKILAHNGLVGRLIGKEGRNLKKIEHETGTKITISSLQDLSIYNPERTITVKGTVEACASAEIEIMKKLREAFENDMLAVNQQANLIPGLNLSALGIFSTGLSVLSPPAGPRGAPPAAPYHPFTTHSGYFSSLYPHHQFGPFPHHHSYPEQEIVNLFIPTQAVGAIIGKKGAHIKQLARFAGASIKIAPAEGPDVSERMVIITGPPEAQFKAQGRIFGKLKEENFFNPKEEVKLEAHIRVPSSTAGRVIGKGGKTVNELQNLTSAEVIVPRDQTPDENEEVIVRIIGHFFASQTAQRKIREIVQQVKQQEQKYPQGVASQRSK
UniProt P22692: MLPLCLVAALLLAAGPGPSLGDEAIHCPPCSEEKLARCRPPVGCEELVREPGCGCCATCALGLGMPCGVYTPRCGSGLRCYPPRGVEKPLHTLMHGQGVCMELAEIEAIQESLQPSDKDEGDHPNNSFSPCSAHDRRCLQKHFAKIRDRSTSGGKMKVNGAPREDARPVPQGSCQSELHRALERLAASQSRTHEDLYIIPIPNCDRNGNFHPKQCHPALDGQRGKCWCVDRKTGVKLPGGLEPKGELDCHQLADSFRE
UniProt Q96LU5: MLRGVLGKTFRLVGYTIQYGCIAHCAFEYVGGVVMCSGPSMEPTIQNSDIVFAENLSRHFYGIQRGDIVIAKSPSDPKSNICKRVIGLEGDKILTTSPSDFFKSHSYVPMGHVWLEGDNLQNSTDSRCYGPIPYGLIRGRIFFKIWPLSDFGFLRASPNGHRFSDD
UniProt Q27J81, whole entry, looked up: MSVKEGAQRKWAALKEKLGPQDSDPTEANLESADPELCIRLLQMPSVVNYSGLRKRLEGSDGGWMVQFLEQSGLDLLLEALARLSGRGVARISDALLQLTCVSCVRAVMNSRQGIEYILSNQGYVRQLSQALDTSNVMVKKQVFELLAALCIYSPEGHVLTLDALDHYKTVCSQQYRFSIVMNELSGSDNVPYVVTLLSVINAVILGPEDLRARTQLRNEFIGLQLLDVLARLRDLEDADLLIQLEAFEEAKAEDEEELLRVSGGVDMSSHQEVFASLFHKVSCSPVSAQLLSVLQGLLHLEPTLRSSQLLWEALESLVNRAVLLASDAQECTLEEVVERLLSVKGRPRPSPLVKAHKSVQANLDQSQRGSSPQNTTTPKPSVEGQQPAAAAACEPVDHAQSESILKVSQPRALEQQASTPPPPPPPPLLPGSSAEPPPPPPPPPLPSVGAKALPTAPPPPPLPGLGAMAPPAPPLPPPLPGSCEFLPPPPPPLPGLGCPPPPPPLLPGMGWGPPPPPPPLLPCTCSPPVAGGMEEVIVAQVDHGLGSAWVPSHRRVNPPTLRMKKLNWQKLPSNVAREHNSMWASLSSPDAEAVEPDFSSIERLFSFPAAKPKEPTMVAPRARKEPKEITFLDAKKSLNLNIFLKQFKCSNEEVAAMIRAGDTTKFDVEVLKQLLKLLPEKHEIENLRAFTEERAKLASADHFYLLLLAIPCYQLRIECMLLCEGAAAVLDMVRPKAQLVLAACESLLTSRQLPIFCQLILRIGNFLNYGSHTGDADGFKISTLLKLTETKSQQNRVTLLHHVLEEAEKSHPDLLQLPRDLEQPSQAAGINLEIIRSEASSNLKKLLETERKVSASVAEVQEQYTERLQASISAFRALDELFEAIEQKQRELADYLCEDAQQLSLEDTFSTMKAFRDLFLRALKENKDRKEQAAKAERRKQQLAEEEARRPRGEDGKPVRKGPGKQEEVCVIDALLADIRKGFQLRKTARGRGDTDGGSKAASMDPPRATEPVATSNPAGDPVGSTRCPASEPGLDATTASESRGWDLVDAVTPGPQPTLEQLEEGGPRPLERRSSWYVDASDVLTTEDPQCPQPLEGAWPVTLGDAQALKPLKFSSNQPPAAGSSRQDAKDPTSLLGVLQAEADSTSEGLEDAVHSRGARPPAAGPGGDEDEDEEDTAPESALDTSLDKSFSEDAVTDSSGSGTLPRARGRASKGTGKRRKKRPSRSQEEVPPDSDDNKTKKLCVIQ
UniProt O95373, whole entry, looked up: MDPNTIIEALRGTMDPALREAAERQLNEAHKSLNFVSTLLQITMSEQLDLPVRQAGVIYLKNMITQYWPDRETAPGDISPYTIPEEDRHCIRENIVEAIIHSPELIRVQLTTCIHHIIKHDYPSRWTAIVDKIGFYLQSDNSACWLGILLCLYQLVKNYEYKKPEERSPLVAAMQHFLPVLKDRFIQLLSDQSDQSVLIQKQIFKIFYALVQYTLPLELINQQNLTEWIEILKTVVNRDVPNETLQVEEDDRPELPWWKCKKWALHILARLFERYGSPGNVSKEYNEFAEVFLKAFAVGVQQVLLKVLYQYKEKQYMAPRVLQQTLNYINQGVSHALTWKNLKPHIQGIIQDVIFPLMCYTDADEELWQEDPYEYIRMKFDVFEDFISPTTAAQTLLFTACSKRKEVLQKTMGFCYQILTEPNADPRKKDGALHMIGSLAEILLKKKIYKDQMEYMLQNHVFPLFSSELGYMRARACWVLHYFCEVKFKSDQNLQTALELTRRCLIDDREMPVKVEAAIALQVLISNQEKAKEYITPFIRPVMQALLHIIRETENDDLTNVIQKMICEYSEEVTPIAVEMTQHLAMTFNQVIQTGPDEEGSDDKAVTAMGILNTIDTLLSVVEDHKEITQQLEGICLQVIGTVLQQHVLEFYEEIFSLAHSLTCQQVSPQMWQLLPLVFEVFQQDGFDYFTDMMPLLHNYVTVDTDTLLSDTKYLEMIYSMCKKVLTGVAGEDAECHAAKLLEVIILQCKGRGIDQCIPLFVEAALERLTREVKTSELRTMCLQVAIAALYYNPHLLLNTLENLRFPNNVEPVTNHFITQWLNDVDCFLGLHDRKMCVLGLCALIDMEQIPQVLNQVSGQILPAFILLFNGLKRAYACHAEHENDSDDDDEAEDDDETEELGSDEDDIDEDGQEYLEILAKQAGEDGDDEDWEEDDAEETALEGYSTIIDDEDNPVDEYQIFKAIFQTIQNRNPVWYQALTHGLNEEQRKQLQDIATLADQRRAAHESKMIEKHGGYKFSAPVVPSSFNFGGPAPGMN
UniProt P32019: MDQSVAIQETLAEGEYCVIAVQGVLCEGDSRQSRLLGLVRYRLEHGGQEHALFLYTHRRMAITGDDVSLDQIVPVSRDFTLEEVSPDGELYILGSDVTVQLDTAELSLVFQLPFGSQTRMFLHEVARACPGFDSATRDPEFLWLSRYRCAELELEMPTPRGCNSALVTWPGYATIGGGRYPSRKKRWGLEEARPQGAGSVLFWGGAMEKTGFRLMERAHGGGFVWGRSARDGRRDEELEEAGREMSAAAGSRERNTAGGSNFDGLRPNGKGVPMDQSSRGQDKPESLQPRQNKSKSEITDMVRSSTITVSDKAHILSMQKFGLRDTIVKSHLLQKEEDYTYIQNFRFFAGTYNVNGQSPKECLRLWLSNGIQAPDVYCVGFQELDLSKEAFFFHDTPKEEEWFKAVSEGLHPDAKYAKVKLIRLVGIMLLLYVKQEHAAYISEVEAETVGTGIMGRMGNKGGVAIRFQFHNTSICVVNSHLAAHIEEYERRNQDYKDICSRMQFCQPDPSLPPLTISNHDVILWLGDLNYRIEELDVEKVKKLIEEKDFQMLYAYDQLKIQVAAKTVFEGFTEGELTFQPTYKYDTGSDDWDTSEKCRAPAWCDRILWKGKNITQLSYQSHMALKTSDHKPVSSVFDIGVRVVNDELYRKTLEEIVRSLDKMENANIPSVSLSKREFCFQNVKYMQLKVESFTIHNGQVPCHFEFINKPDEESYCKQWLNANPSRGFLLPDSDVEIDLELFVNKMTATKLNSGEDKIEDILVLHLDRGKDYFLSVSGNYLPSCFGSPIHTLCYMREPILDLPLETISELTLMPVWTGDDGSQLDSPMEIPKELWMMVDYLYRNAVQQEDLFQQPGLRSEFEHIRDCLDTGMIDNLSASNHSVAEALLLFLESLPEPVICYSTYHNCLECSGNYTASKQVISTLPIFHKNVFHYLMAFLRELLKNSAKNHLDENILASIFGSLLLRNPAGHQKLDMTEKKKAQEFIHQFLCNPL
UniProt P50213: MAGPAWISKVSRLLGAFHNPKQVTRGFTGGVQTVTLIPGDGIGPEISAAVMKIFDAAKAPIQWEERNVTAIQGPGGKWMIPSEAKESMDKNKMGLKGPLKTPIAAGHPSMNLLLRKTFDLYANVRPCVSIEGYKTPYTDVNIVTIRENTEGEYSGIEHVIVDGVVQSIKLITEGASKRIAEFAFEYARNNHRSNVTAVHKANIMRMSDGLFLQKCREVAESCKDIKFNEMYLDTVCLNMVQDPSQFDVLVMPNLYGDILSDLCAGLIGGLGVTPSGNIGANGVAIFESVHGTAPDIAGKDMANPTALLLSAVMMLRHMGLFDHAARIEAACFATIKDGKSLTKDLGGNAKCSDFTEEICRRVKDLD

Legend:
Experiment in all cases: log2 fold change, soluble protein after heating vs DMSO (PISA); higher = thermal stabilisation; K562 cells, 10 uM, 30 min; active = over 0.2 and 3.5 SD of the protein, either way, in both replicates (recomputed)
[1] = compound: COC1=CC=C(C=C1)CN2C=CC3=C2C=C(C=C3)C(=O)NO
Method in brief: (§1)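 Soluble protein was quantified by TMTpro 16plex LC-MS/MS after channel sums were equalised. It was obtained as the supernatant after 21,000xg for 90 min from pooled aliquots of K562 cells (2×10^6 cells/mL, 10 μM compound, 30 min) heated for 3 min across 48°C-58°C and extracted in PBS with 0.5% NP-40 at 4°C. Thermal stability values are relative to control samples and come from duplicates. They are given as log2 fold changes.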

[2] = compound: CON(C)C(=O)N1N=C(c2cc(F)ccc2F)S[C@@]1(CCCN)c1ccccc1 [filanesib]
Method in brief: as §1

[3] = compound: CO[C@H]1C[C@@H]2CC[C@@H](C)[C@@](O)(O2)C(=O)C(=O)N2CCCC[C@H]2C(=O)O[C@H]([C@H](C)C[C@@H]2CC[C@H](n3cnnn3)[C@H](OC)C2)CC(=O)[C@H](C)/C=C(\C)[C@@H](O)[C@@H](OC)C(=O)[C@H](C)C[C@H](C)/C=C/C=C/C=C/1C [zotarolimus]
Method in brief: as §1

[4] = compound: COc1cc(C(=O)O)ccc1NC(=O)[C@@H]1N[C@@H](CC(C)(C)C)[C@](C#N)(c2ccc(Cl)cc2F)[C@H]1c1cccc(Cl)c1F [idasanutlin]
Method in brief: as §1

[5] = compound: COc1cc(Nc2ncc3c(n2)-c2ccc(Cl)cc2C(c2c(F)cccc2OC)=NC3)ccc1C(=O)O [alisertib]
Method in brief: as §1

[6] = compound: COc1cc2nc(-c3cc(F)ccc3O)nc(N[C@@H]3CNC[C@H]3C(C)(C)O)c2cc1OC
Method in brief: as §1

[7] = compound: COc1cc2ncnc(Nc3ccc(F)c(Cl)c3)c2cc1OCCCN1CCOCC1 [gefitinib]
Method in brief: as §1

[8] = compound: COc1cccc2cc(-c3nc([C@H]4CC[C@H](C(=O)O)CC4)n4ncnc(N)c34)[nH]c12
Method in brief: as §1

[9] = compound: CS(=O)(=O)CCNCc1ccc(-c2ccc3ncnc(Nc4ccc(OCc5cccc(F)c5)c(Cl)c4)c3c2)o1 [lapatinib]
Method in brief: as §1

[10] = compound: CS(=O)(=O)N1CCN(Cc2cc3nc(-c4cccc5[nH]ncc45)nc(N4CCOCC4)c3s2)CC1 [pictilisib]
Method in brief: as §1

[11] = compound: CS(=O)(=O)c1ccc(-c2cnc(N)c(C(=O)Nc3ccccc3)n2)cc1
Method in brief: as §1

[12] = compound: C[C@@H](Oc1cc(-c2cnn(C3CCNCC3)c2)cnc1N)c1c(Cl)ccc(F)c1Cl [crizotinib]
Method in brief: as §1

[13] = compound: C[C@@H]1COCCN1C2=NC(=NC(=C2)C3(CC3)S(=O)(=O)C)C4=C5C=CNC5=CC=C4
Method in brief: as §1

[14] = compound: C[C@H](C1=CC=C(C=C1)C(=O)NC2=C3C=CNC3=NC=C2)N
Method in brief: as §1

[15] = compound: C[C@H](Nc1ncnc2nc[nH]c12)c1cc2cccc(Cl)c2c(=O)n1-c1ccccc1 [duvelisib]
Method in brief: as §1

[16] = compound: Cc1cc(Nc2cc(CN3CCOCC3)c3nc(C)c(Cc4ccc(Cl)cc4F)n3n2)n[nH]1 [gandotinib]
Method in brief: as §1

[17] = compound: Cc1cc(Nc2cc(N3CCN(C)CC3)nc(Sc3ccc(NC(=O)C4CC4)cc3)n2)n[nH]1 [tozasertib]
Method in brief: as §1

[18] = compound: Cc1cc(SCc2sc(-c3ccc(C(F)(F)F)cc3)nc2C)ccc1OCC(=O)O
Method in brief: as §1

[19] = compound: Cc1ccc(-n2nc(C(C)(C)C)cc2NC(=O)Nc2ccc(OCCN3CCOCC3)c3ccccc23)cc1 [doramapimod]
Method in brief: as §1

[20] = compound: Cc1ccc(C(=O)N(CCCN)[C@@H](c2nc3cc(Cl)ccc3c(=O)n2Cc2ccccc2)C(C)C)cc1 [ispinesib]
Method in brief: as §1

Row | Target | log2 fold change [1] | log2 fold change [2] | log2 fold change [3] | log2 fold change [4] | log2 fold change [5] | log2 fold change [6] | log2 fold change [7] | log2 fold change [8] | log2 fold change [9] | log2 fold change [10] | log2 fold change [11] | log2 fold change [12] | log2 fold change [13] | log2 fold change [14] | log2 fold change [15] | log2 fold change [16] | log2 fold change [17] | log2 fold change [18] | log2 fold change [19] | log2 fold change [20]
1 | INTS10 (UniProt Q9NVR2) | inactive: 0.06 | inactive: -0.077 | inactive: 0.011 | inactive: -0.052 | inactive: -0.033 | inactive: -0.036 | inactive: 0.009 | inactive: -0.087 | inactive: -0.022 | inactive: 0.063 | inactive: 0 | inactive: -0.001 | inactive: 0.173 | inactive: -0.052 | inactive: 0.111 | inactive: -0.166 | inactive: -0.03 | inactive: 0.076 | inactive: -0.043 | inactive: 0.001
2 | ILRUN (UniProt Q9H6K1) | inactive: -0.051 | inactive: -0.016 | inactive: 0.042 | inactive: -0.101 | inactive: -0.03 | inactive: -0.002 | inactive: 0.048 | inactive: 0.09 | inactive: 0.08 | – | inactive: -0.033 | inactive: 0.115 | inactive: 0.028 | inactive: -0.038 | – | – | – | inactive: 0.029 | inactive: 0.005 | inactive: 0.032
3 | IFRD1 (UniProt O00458) | inactive: -0.07 | inactive: -0.017 | inactive: 0.071 | inactive: -0.042 | inactive: -0.008 | inactive: -0.25 | inactive: 0.199 | inactive: 0.253 | inactive: 0.069 | inactive: 0.214 | inactive: 0.347 | inactive: 0.004 | active: 0.37 | inactive: 0.013 | – | inactive: 0.104 | – | inactive: -0.003 | inactive: 0 | inactive: -0.006
4 | ISOC2 (UniProt Q96AB3) | inactive: 0.16 | inactive: 0.061 | inactive: 0.072 | inactive: -0.028 | inactive: -0.04 | inactive: -0.067 | inactive: 0 | inactive: 0.001 | inactive: -0.002 | – | inactive: 0.035 | inactive: 0.023 | inactive: 0.003 | inactive: 0.275 | inactive: -0.198 | – | inactive: -0.052 | inactive: 0.111 | inactive: -0.019 | inactive: 0.166
5 | ITFG2 (UniProt Q969R8) | inactive: -0.053 | inactive: 0.055 | inactive: 0.035 | inactive: -0.042 | inactive: 0.069 | inactive: 0.055 | inactive: -0.061 | inactive: -0.014 | inactive: 0.038 | – | inactive: 0.089 | inactive: -0.033 | inactive: 0.119 | inactive: -0.017 | inactive: 0.102 | – | inactive: 0.057 | inactive: 0.088 | inactive: 0.065 | inactive: 0.018
6 | IMMT isoform 4 (UniProt Q16891) | inactive: -0.008 | inactive: -0.122 | inactive: -0.007 | inactive: -0.082 | inactive: -0.049 | inactive: -0.146 | inactive: -0.005 | inactive: 0.013 | inactive: -0.047 | inactive: 0.005 | inactive: 0.017 | inactive: -0.102 | inactive: 0.084 | inactive: -0.012 | – | inactive: -0.093 | – | inactive: 0 | inactive: -0.014 | inactive: -0.202
7 | IGF2BP2 (UniProt Q9Y6M1) | inactive: -0.111 | inactive: 0.301 | inactive: 0.104 | inactive: 0.136 | inactive: -0.103 | inactive: -0.105 | inactive: 0.007 | inactive: -0.113 | inactive: 0.046 | inactive: -0.043 | inactive: 0.009 | inactive: -0.062 | inactive: -0.186 | active: 0.531 | – | inactive: 0.139 | – | inactive: 0.158 | inactive: 0.288 | inactive: -0.182
8 | IGFBP4 (UniProt P22692) | inactive: -0.075 | inactive: 0.012 | inactive: -0.31 | active: 0.392 | inactive: 0.009 | inactive: -0.024 | inactive: -0.107 | inactive: 0.179 | inactive: -0.036 | inactive: -0.022 | inactive: -0.066 | inactive: 0.064 | inactive: 0.022 | inactive: -0.114 | – | inactive: -0.229 | – | inactive: -0.007 | inactive: 0 | inactive: -0.233
9 | IMMP1L (UniProt Q96LU5) | inactive: -0.041 | inactive: -0.067 | inactive: -0.034 | inactive: -0.067 | active: -0.252 | inactive: 0.005 | inactive: -0.022 | inactive: 0.016 | inactive: -0.062 | – | inactive: 0.024 | inactive: 0.121 | inactive: 0.045 | inactive: -0.05 | – | – | – | inactive: 0.012 | inactive: 0.015 | inactive: -0.063
10 | IRF2BPL (UniProt Q9H1B7) | inactive: 0.283 | inactive: -0.025 | inactive: 0.029 | inactive: 0.033 | inactive: 0.058 | inactive: 0.015 | inactive: -0.016 | inactive: -0.027 | inactive: -0.015 | inactive: 0.071 | inactive: -0.034 | inactive: 0.133 | inactive: 0.249 | inactive: -0.005 | – | inactive: -0.041 | – | inactive: 0.066 | inactive: -0.061 | inactive: -0.083
11 | INF2 (UniProt Q27J81) | inactive: 0.062 | inactive: 0.16 | inactive: -0.013 | inactive: 0.066 | inactive: -0.12 | – | inactive: 0.154 | inactive: -0.005 | – | – | inactive: -0.012 | inactive: -0.093 | inactive: -0.211 | inactive: 0.056 | inactive: 0.001 | – | – | inactive: -0.021 | inactive: 0.049 | inactive: -0.066
12 | IPO7 (UniProt O95373) | inactive: 0.053 | inactive: -0.094 | inactive: 0.014 | inactive: -0.103 | inactive: -0.087 | inactive: -0.111 | inactive: 0 | inactive: -0.014 | inactive: -0.008 | inactive: -0.006 | inactive: -0.011 | inactive: -0.138 | inactive: 0.042 | inactive: -0.07 | – | inactive: -0.185 | – | inactive: 0.073 | inactive: -0.054 | inactive: -0.077
13 | INPP5B (UniProt P32019) | inactive: 0 | inactive: -0.015 | inactive: 0.002 | inactive: -0.003 | inactive: 0.03 | inactive: 0.052 | inactive: -0.008 | inactive: -0.043 | inactive: 0.006 | inactive: 0.04 | inactive: 0.057 | inactive: -0.096 | inactive: -0.02 | inactive: 0.042 | – | inactive: 0.017 | – | inactive: 0.029 | inactive: 0.095 | inactive: -0.005
14 | INTS7 (UniProt Q9NVH2) | inactive: 0.05 | inactive: -0.022 | inactive: -0.007 | inactive: -0.052 | inactive: -0.029 | inactive: 0.05 | inactive: -0.052 | inactive: -0.012 | inactive: -0.015 | inactive: 0.148 | inactive: 0.009 | inactive: -0.133 | inactive: -0.053 | inactive: -0.054 | – | inactive: 0.211 | – | inactive: 0.014 | inactive: -0.091 | inactive: -0.036
15 | IPO9 (UniProt Q96P70) | inactive: 0.014 | inactive: -0.005 | inactive: 0.052 | inactive: -0.089 | inactive: -0.016 | inactive: -0.054 | inactive: 0.088 | inactive: 0.065 | inactive: 0.011 | inactive: 0.031 | inactive: -0.04 | inactive: -0.031 | inactive: 0.051 | inactive: -0.042 | – | inactive: -0.146 | – | inactive: 0.041 | inactive: 0.008 | inactive: 0.062
16 | INTS2 (UniProt Q9H0H0) | inactive: 0.013 | inactive: -0.003 | inactive: 0.126 | inactive: -0.034 | inactive: -0.014 | inactive: -0.111 | – | inactive: 0.139 | inactive: -0.033 | inactive: -0.08 | inactive: 0.072 | inactive: -0.126 | inactive: -0.158 | inactive: 0.065 | – | inactive: 0.035 | inactive: 0.096 | – | inactive: 0 | inactive: -0.032
17 | IDH3A (UniProt P50213) | inactive: 0 | inactive: -0.067 | inactive: 0.007 | inactive: -0.074 | inactive: -0.063 | inactive: -0.009 | inactive: 0.039 | inactive: 0.022 | inactive: 0.017 | inactive: -0.021 | inactive: 0.023 | inactive: 0.006 | inactive: 0.07 | inactive: -0.046 | – | inactive: -0.037 | – | inactive: 0.022 | inactive: -0.024 | inactive: 0.013

An excerpt of these results, with tabs:
Row	Target	log2 fold change [1]	log2 fold change [2]	log2 fold change [3]	log2 fold change [4]	log2 fold change [5]	log2 fold change [6]	log2 fold change [7]	log2 fold change [8]	log2 fold change [9]	log2 fold change [10]	log2 fold change [11]	log2 fold change [12]	log2 fold change [13]	log2 fold change [14]	log2 fold change [15]	log2 fold change [16]	log2 fold change [17]	log2 fold change [18]	log2 fold change [19]	log2 fold change [20]
13	INPP5B (UniProt P32019)	inactive: 0	inactive: -0.015	inactive: 0.002	inactive: -0.003	inactive: 0.03	inactive: 0.052	inactive: -0.008	inactive: -0.043	inactive: 0.006	inactive: 0.04	inactive: 0.057	inactive: -0.096	inactive: -0.02	inactive: 0.042	–	inactive: 0.017	–	inactive: 0.029	inactive: 0.095	inactive: -0.005
14	INTS7 (UniProt Q9NVH2)	inactive: 0.05	inactive: -0.022	inactive: -0.007	inactive: -0.052	inactive: -0.029	inactive: 0.05	inactive: -0.052	inactive: -0.012	inactive: -0.015	inactive: 0.148	inactive: 0.009	inactive: -0.133	inactive: -0.053	inactive: -0.054	–	inactive: 0.211	–	inactive: 0.014	inactive: -0.091	inactive: -0.036
15	IPO9 (UniProt Q96P70)	inactive: 0.014	inactive: -0.005	inactive: 0.052	inactive: -0.089	inactive: -0.016	inactive: -0.054	inactive: 0.088	inactive: 0.065	inactive: 0.011	inactive: 0.031	inactive: -0.04	inactive: -0.031	inactive: 0.051	inactive: -0.042	–	inactive: -0.146	–	inactive: 0.041	inactive: 0.008	inactive: 0.062
